# Record: PubChem BioAssay AID1259267 (Sanger Institute, 2017)
# Aim: 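Essential and drug-synergistic knock-downs in GP5D bowel cancer cells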 (primary screen)
# Cell system: human GP5D colorectal cancer cells
# Reagent: siRNA pool against human genes
# Challenge: anchor drugs at low dose: BYL719 1 µM, cetuximab 5 µg/ml, trametinib 10 nM, or DMSO vehicle
# Detection: 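Viability against non-targeting pool, replicate mean: robust z-score for knock-down alone, fraction with DMSO, synergy with BYL719 1 µM, cetuximab 5 µg/ml, trametinib 10 nM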
# Scale: robust z-score, knock-down alone and viability with DMSO: higher = more viable cells; synergy score with trametinib and synergy score with BYL719 and synergy score with cetuximab: higher = stronger synthetic lethal synergy with drug
# Hit rule: 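Active (essential alone) if knock-down without drug gives robust z-score under -3; drug synergy does not count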
# Meaning of the calls: active = essential alone; inactive = not essential
# This is one part, drawn at random, of 794 deposited reagents. Over the whole deposit, 9 (1.1%) were called active. 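Viability capped at 1; calls reflect loss of viability from knock-down alone, not synergy with drugs.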 Reagent sequences are not shown. Not stated in the record: the amount of reagent, the time to read-out.
gene,PubChem SID,"robust z-score, knock-down alone",viability with DMSO (fraction of control),synergy score with trametinib,synergy score with BYL719,synergy score with cetuximab,Outcome
TRIO (GeneID 7204),SID56478974,-1.03,0.609,0.056,-0.154,-0.0705,inactive
MYO3A (GeneID 53904),SID152148134,-1.42,0.526,-0.189,-0.371,-0.256,inactive
EPHA7 (GeneID 2045),SID152149990,-0.795,0.658,-0.0584,-0.177,-0.23,inactive
PRKCG (GeneID 5582),SID56478828,-0.914,0.633,-0.105,-0.115,-0.0513,inactive
MATK (GeneID 4145),SID152153842,0.642,0.963,0.0817,-0.185,-0.127,inactive
STK4 (GeneID 6789),SID56478776,-0.261,0.771,-0.256,-0.223,-0.108,inactive
EPHB4 (GeneID 2050),SID152156322,0.277,0.885,0.0603,-0.2,-0.108,inactive
GSK3B (GeneID 2932),SID56478468,-0.195,0.786,-0.0886,-0.247,-0.202,inactive
BMPR1A (GeneID 657),SID135620910,0.183,0.866,0.245,0.125,0.122,inactive
GUCY2C (GeneID 2984),SID152148747,-0.274,0.769,-0.336,-0.279,-0.277,inactive
WIPF1 (GeneID 7456),SID152149422,-1.49,0.511,-0.0101,-0.106,-0.142,inactive
CDK14 (GeneID 5218),SID56478888,-1.58,0.492,-0.163,-0.326,-0.0442,inactive
CDKL3 (GeneID 51265),SID56478871,0.558,0.945,0.429,-0.00774,0.215,inactive
PDIK1L (GeneID 149420),SID152147170,0.817,1,-0.0604,-0.322,-0.142,inactive
BCOR (GeneID 54880),SID135620845,0.817,1,0.234,0.111,0.13,inactive
NUCKS1 (GeneID 64710),SID152150801,0.817,1,0.181,0.0882,-0.142,inactive
FN3KRP (GeneID 79672),SID56479164,-2.72,0.25,-0.15,-0.108,-0.058,inactive
WNK4 (GeneID 65266),SID56478961,-0.228,0.779,0.125,-0.185,-0.146,inactive
TBCK (GeneID 93627),SID56479023,0.817,1,-0.197,-0.33,-0.142,inactive
FGFRL1 (GeneID 53834),SID135622448,-1.98,0.408,0.136,-0.125,0.0778,inactive
NEK5 (GeneID 341676),SID135624240,0.564,0.946,0.0376,-0.358,-0.188,inactive
JAK1 (GeneID 3716),SID152154758,0.817,1,-0.0984,-0.235,-0.142,inactive
MAP3K15 (GeneID 389840),SID152147179,0.249,0.88,0.0055,-0.28,-0.1,inactive
CASK (GeneID 8573),SID56479000,0.817,1,0.104,-0.0293,-0.0591,inactive
GRK5 (GeneID 2869),SID152146923,0.691,0.973,0.204,0.0164,-0.11,inactive
PRKACA (GeneID 5566),SID135620859,0.477,0.928,0.0066,-0.187,-0.204,inactive
CAMKV (GeneID 79012),SID135620973,-0.616,0.696,0.12,-0.167,0.0431,inactive
ATRX (GeneID 546),SID152156576,0.817,1,-0.0574,-0.106,-0.0478,inactive
EGFR (GeneID 1956),SID135620613,-1.35,0.541,-0.144,-0.244,-0.298,inactive
PCK2 (GeneID 5106),SID56479157,0.817,1,-0.0984,-0.163,-0.142,inactive
CLSPN (GeneID 63967),SID134310856,0.221,0.874,0.254,-0.158,0.0651,inactive
IP6K3 (GeneID 117283),SID135621241,-1.1,0.594,-0.0351,-0.1,0.0196,inactive
GUCY2EP (GeneID 390226),SID152152788,0.754,0.987,0.261,-0.0774,0.0314,inactive
CSNK1A1L (GeneID 122011),SID135620867,0.817,1,0.221,-0.233,-0.0502,inactive
KHK (GeneID 3795),SID135621242,0.817,1,0.0985,-0.096,-0.142,inactive
MYH10 (GeneID 4628),SID134325581,-0.0897,0.808,-0.0387,0.0393,-0.231,inactive
DAPK3 (GeneID 1613),SID56478935,-0.523,0.716,-0.0968,-0.159,-0.239,inactive
MED12 (GeneID 9968),SID152147641,0.817,1,0.166,0.0118,-0.036,inactive
GRK1 (GeneID 6011),SID152156219,0.237,0.877,-0.296,-0.273,-0.185,inactive
RIPK4 (GeneID 54101),SID135620968,0.812,0.999,0.102,0.0431,0.0494,inactive
WEE1 (GeneID 7465),SID152152823,-2.88,0.217,-0.0212,-0.185,-0.0368,inactive
KRAS (GeneID 3845),SID134310727,-1.99,0.404,-0.1,-0.122,-0.032,inactive
PINK1 (GeneID 65018),SID152149500,0.817,1,0.199,0.0081,-0.0971,inactive
INSRR (GeneID 3645),SID56479015,0.521,0.937,0.0891,-0.245,0.0488,inactive
DLG1 (GeneID 1739),SID152148481,0.572,0.948,-0.0424,-0.122,-0.187,inactive
GK (GeneID 2710),SID56479100,0.817,1,0.0177,-0.0844,-0.142,inactive
DYRK4 (GeneID 8798),SID56478859,0.817,1,0.0562,0.0477,0.0354,inactive
DGKD (GeneID 8527),SID56479091,-0.315,0.76,0.00882,-0.0978,-0.306,inactive
FGFR2 (GeneID 2263),SID152155469,-1.9,0.425,0.0402,-0.231,-0.12,inactive
CLK3 (GeneID 1198),SID56478875,0.463,0.925,0.309,0.0609,0.215,inactive

Entries listed so far whose target name begins with P or p (5):
gene,PubChem SID,"robust z-score, knock-down alone",viability with DMSO (fraction of control),synergy score with trametinib,synergy score with BYL719,synergy score with cetuximab,Outcome
PRKCG (GeneID 5582),SID56478828,-0.914,0.633,-0.105,-0.115,-0.0513,inactive
PDIK1L (GeneID 149420),SID152147170,0.817,1,-0.0604,-0.322,-0.142,inactive
PRKACA (GeneID 5566),SID135620859,0.477,0.928,0.0066,-0.187,-0.204,inactive
PCK2 (GeneID 5106),SID56479157,0.817,1,-0.0984,-0.163,-0.142,inactive
PINK1 (GeneID 65018),SID152149500,0.817,1,0.199,0.0081,-0.0971,inactive
